Test results reported in the supplement of paper PMC12823440, “Inhibitors supercharge kinase turnover through native proteolytic circuits” (Nature, 2025).
Counter-ions that a name gives are not always drawn. Some of the results follow. Hit calls seldom repeat between salt and free forms of one compound.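 Kinases, fused to nanoluciferase, were expressed in K562 cells; luminescence was measured every 4 h from 2 to 18 h as percent of control (DMSO = 100%, positive control = 0%). A time point is decreased if signal falls significantly (2 sigma). Hits were called by the authors by a rule that is not shown; the count of time points alone does not decide it.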

Chains of the proteins cited; added tags and fusions are not shown. Lines headed by an entry give the natural chain unless they say otherwise; changes in a name come on top.
UniProt Q9UM73: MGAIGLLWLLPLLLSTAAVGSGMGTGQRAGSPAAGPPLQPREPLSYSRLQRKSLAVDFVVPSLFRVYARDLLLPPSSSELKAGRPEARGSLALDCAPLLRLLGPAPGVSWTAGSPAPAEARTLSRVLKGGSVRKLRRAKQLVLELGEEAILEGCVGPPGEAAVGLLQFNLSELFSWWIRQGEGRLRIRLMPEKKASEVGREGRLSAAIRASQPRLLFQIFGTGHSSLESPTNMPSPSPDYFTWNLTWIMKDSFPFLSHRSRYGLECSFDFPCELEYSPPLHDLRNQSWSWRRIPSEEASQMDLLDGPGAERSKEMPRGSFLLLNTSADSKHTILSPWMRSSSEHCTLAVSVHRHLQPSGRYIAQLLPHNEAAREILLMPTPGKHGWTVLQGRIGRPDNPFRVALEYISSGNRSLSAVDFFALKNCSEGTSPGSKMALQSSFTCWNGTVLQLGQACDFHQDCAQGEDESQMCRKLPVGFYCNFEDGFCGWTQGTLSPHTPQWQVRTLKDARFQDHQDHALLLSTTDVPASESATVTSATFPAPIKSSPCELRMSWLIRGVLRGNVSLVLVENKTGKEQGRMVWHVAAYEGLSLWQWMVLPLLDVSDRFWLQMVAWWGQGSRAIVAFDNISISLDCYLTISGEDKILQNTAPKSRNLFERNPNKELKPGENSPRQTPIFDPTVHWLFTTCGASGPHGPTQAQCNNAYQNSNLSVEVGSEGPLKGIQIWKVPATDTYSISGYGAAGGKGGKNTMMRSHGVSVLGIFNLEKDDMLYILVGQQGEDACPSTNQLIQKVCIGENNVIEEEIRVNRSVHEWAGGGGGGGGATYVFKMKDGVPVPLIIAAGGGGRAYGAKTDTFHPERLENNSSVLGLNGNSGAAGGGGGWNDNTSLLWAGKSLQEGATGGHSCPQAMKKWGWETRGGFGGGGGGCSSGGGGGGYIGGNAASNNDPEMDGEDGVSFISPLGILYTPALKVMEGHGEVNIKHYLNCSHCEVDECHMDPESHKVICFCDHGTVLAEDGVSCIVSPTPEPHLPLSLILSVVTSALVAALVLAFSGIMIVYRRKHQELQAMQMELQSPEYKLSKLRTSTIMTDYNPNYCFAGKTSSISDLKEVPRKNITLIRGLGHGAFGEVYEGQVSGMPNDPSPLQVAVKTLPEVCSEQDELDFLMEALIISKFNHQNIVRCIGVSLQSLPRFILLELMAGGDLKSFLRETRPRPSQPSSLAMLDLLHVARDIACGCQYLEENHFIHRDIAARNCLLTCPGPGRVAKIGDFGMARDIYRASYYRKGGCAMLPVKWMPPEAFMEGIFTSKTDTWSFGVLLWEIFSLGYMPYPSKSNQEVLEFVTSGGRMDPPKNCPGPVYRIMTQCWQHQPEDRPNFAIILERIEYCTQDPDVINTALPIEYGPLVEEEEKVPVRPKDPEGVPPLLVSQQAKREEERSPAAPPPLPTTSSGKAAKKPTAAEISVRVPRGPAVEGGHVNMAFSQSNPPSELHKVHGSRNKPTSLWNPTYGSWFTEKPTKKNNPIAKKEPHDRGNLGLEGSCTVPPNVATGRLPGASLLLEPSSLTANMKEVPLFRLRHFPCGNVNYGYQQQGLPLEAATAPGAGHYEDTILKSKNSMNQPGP
UniProt P10398: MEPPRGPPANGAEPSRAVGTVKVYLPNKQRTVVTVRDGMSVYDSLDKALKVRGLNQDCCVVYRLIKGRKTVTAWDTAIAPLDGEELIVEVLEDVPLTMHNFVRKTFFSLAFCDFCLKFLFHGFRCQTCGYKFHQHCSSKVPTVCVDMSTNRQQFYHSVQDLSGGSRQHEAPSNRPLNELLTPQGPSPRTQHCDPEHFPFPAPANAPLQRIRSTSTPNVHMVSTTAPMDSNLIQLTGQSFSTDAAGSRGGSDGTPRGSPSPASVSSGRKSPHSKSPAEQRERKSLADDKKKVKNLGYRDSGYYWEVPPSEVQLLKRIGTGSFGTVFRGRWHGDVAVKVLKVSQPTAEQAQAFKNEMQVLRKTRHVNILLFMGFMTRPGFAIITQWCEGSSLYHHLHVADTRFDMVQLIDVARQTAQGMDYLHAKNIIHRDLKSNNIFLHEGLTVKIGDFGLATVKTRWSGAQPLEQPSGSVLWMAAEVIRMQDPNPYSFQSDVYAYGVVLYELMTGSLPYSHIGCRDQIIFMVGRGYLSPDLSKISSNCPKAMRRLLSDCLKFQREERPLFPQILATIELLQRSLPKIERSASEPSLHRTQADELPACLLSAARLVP
UniProt O14965: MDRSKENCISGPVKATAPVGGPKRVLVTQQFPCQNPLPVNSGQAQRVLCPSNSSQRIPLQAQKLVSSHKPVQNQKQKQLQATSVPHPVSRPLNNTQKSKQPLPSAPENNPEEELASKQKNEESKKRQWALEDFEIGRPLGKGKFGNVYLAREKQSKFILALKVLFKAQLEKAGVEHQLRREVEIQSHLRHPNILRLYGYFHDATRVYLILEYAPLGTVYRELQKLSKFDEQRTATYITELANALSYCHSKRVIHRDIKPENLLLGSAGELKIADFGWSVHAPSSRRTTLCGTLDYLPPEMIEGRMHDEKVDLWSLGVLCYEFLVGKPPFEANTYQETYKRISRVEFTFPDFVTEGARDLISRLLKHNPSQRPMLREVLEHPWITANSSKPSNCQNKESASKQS
UniProt Q96GD4, whole entry: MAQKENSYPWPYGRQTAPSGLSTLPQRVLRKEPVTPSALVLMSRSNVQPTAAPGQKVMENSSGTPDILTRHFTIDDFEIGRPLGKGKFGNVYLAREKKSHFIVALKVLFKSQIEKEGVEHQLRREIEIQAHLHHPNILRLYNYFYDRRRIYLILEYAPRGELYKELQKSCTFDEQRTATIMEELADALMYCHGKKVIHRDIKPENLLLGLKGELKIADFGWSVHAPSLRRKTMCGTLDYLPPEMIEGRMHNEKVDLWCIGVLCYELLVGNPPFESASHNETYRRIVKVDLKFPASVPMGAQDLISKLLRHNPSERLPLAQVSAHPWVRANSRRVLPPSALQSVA
UniProt Q9UQB9: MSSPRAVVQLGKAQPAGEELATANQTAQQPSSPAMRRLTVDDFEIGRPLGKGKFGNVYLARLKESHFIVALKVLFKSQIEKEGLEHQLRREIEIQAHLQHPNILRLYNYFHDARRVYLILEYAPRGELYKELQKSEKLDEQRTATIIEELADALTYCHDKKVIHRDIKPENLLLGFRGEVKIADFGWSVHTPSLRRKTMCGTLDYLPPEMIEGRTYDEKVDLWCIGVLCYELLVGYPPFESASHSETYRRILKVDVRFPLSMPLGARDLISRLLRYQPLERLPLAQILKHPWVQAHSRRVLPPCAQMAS
UniProt P51451: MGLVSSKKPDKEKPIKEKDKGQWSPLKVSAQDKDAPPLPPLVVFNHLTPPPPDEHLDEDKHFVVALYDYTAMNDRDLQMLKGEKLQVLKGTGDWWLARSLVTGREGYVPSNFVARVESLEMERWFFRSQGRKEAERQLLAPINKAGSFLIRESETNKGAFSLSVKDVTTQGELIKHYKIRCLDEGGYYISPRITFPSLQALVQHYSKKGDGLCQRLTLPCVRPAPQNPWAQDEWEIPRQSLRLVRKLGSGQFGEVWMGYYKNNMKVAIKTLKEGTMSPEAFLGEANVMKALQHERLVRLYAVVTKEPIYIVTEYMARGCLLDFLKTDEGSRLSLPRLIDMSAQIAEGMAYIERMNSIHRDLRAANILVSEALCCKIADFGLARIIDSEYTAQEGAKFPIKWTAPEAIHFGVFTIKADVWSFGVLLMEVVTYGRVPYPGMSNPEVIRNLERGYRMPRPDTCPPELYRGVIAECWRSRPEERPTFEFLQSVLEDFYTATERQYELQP
UniProt P51813: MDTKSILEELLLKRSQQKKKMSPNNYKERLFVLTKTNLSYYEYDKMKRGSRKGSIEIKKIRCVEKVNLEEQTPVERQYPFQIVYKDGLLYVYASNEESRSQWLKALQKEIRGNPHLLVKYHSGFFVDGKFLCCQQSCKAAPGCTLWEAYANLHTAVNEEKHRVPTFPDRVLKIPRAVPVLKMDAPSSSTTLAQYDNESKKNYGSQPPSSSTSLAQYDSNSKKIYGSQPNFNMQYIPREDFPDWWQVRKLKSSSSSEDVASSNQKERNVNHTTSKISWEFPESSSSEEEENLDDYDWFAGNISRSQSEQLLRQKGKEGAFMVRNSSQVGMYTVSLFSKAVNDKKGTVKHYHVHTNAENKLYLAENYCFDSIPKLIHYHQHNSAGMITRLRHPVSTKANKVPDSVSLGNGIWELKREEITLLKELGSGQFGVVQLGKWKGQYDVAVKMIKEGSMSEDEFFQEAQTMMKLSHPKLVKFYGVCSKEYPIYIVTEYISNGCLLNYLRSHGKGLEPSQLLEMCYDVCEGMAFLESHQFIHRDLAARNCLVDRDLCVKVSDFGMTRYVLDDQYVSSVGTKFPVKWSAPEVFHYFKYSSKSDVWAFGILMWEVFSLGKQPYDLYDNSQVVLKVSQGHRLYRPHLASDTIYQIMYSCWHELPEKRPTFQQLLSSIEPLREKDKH
UniProt P15056, whole entry, looked up: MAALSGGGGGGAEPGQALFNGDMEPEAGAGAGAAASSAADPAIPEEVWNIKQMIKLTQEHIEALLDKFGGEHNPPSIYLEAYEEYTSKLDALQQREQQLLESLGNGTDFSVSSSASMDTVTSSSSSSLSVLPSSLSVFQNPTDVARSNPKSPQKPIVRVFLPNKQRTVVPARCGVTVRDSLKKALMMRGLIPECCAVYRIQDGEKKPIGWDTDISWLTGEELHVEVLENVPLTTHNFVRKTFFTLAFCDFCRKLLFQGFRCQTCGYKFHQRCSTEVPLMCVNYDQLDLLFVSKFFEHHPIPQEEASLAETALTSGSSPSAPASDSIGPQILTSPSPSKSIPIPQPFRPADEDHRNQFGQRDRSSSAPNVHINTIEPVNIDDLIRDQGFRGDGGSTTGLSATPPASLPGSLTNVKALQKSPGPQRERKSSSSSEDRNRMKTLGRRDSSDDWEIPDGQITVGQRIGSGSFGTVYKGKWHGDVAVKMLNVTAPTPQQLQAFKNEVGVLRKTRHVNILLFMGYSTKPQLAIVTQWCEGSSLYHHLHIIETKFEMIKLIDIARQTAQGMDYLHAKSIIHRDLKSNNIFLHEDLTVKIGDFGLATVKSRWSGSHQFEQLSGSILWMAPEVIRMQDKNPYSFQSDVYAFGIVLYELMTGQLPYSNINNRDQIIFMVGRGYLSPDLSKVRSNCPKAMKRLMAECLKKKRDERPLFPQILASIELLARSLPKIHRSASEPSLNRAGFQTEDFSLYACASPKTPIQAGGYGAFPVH
UniProt Q06187: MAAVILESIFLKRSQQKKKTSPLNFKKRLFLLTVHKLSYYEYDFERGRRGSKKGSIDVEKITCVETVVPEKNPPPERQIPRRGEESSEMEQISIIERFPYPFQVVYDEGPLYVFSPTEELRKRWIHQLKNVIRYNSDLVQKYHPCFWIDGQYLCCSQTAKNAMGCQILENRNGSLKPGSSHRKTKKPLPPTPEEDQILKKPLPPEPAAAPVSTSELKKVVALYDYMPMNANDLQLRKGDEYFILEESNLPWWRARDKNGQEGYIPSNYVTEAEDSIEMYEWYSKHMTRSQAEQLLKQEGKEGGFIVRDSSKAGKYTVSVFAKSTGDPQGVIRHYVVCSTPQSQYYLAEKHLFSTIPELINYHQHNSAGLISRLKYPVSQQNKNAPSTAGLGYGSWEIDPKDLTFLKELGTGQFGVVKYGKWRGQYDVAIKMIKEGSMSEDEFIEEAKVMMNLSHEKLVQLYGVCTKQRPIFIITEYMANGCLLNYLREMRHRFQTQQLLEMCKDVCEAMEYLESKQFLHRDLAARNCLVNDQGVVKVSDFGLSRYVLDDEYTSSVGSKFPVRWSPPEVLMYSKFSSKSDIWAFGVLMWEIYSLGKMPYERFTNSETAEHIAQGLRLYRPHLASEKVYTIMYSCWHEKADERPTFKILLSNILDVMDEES

Key:
Assay in all cases: number of time points (of 5) at which kinase-Nluc abundance scored as decreased, DMSO-normalised (count); higher = more persistent destabilization
Details in all cases: K562; 2-18 h
ALK = ALK (UniProt Q9UM73)
ARAF = ARAF (UniProt P10398)
AURKA = AURKA (UniProt O14965)
AURKB = AURKB (UniProt Q96GD4)
AURKC = AURKC (UniProt Q9UQB9)
BLK = BLK (UniProt P51451)
BMX = BMX (UniProt P51813)
BRAF = BRAF (UniProt P15056)
BRAF_V600E = system: BRAF_V600E
BTK = BTK (UniProt Q06187)

Measured: number of time points

CNC(=O)c1cc2c(Oc3ccc(NC(=S)NC(=O)Cc4ccccc4)cc3F)ccnc2cc1OC [TAS-115 mesylate] (10 µM)
3: BRAF_V600E
2: BMX | BRAF
1: ARAF | AURKC | BTK
0: all other assays above

COc1cc(N(C)CCN(C)C)c(N)cc1Nc1nccc(-c2cn(C)c3ccccc23)n1 [Mutated EGFR-IN-1] (10 µM)
3: BLK
0: all other assays above

CN(C)S(=O)(=O)c1ccc2c(c1)/C(=C/c1cc3c([nH]1)CCCC3)C(=O)N2 (2.5 µM)
2: BRAF
0: all other assays above

O=C(O)c1cc(=O)c2c(OCC(O)COc3cccc4oc(C(=O)O)cc(=O)c34)cccc2o1 [Cromolyn (sodium)] (10 µM)
0: all assays above

COc1cc(-c2cn[nH]c2)ccc1C(=O)Nc1ccc2c(c1)CCNCC2 (10 µM)
0: all assays above

N#CC(c1ccnc(OCc2ccc(CN3CCOCC3)cc2)n1)c1nc2ccccc2s1 (stereo not given) [Bentamapimod] (2.5 µM)
0: all assays above

COc1c(Nc2cc(C)[nH]n2)nc(Sc2ccc(S(=O)(=O)Cc3cccc([N+](=O)[O-])c3F)cc2F)nc1N1CCCCC1 [Centrinone-B] (2.5 µM)
0: all assays above

FC(F)(F)c1ccc(/C=C/c2nc(COc3ccc(CCCCn4ccnn4)cc3)co2)cc1 [Mubritinib] (10 µM)
1: BMX | BRAF_V600E
0: all other assays above

CC(C)(C)n1nc(Cc2ccccc2O)c2c(N)ncnc21 (10 µM)
0: all assays above

Fetched one by one from the list above (2):
N#CC(c1ccnc(OCc2ccc(CN3CCOCC3)cc2)n1)c1nc2ccccc2s1 (stereo not given) [Bentamapimod] (2.5 µM)
0: all assays above

COc1c(Nc2cc(C)[nH]n2)nc(Sc2ccc(S(=O)(=O)Cc3cccc([N+](=O)[O-])c3F)cc2F)nc1N1CCCCC1 [Centrinone-B] (2.5 µM)
0: all assays above

Later entries.

COc1cc(N2CCOCC2)ccc1Nc1ncc(Cl)c(Nc2ccccc2NS(C)(=O)=O)n1 (2.5 µM)
0: all assays above

O=[N+]([O-])c1ccc(Nc2nc(N3CCOCC3)nc(N3CCOCC3)n2)cc1 (10 µM)
0: all assays above
